# Library screen at single concentrations

Protein sequences, listed by entry. Tags and fused reporters are not part of them. Residues count along the entry.
UniProt I6X8D2, whole entry: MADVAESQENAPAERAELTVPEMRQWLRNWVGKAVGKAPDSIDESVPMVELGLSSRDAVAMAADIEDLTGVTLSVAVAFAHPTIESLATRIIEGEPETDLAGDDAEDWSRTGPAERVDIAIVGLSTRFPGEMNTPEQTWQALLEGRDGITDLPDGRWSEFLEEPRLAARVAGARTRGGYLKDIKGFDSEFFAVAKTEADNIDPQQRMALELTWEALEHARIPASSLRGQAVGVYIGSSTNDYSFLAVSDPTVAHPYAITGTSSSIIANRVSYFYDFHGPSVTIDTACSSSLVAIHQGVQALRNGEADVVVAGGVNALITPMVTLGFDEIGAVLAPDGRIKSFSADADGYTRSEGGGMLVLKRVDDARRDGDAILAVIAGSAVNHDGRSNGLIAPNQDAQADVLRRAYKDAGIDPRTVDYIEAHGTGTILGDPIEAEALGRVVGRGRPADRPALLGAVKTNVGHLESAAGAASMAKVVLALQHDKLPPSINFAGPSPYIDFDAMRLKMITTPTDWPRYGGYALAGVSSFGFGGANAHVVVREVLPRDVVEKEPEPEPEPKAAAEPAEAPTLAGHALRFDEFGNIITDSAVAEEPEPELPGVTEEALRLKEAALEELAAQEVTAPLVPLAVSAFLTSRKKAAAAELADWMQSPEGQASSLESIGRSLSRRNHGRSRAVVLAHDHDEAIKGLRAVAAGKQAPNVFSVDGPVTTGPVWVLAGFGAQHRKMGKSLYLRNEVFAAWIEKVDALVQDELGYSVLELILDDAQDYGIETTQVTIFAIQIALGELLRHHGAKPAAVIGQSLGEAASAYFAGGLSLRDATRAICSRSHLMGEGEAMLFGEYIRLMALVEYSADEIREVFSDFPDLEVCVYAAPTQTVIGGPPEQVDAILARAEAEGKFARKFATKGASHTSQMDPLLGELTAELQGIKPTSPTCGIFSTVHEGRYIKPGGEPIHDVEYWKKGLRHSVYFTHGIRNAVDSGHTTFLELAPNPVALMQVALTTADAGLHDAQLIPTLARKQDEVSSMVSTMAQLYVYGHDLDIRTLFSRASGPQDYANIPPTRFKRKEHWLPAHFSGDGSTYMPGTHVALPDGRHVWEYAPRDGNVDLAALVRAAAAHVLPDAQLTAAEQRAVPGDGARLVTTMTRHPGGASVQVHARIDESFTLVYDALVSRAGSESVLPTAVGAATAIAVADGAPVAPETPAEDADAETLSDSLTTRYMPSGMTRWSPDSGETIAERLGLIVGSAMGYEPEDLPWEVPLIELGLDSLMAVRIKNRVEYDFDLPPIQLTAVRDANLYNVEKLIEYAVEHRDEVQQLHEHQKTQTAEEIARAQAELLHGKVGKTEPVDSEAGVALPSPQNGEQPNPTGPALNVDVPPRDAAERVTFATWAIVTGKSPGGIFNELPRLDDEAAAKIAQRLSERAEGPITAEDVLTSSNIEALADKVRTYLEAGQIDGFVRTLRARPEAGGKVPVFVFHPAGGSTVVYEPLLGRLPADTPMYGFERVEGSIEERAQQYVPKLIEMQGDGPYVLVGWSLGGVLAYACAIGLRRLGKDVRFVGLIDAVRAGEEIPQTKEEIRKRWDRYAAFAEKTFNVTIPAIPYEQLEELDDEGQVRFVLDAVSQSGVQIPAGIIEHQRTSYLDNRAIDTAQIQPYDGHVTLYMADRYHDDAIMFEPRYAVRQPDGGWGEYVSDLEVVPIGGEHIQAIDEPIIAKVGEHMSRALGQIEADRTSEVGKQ
UniProt Q8IDJ8, 1-583: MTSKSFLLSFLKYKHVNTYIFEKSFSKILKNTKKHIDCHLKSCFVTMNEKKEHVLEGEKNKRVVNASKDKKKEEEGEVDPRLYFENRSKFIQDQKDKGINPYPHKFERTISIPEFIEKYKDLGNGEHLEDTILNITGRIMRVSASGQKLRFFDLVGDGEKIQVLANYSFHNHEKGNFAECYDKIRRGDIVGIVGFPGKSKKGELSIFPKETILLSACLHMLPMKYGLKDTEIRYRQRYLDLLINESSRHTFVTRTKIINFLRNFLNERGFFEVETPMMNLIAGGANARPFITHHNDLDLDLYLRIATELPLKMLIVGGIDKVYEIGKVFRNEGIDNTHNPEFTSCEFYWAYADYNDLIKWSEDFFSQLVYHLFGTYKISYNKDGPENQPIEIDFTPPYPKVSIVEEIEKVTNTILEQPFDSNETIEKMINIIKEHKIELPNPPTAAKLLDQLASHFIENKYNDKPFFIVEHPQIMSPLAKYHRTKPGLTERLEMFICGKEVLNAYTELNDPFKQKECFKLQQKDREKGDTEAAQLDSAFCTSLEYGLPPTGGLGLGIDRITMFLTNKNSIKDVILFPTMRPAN
UniProt A4I591, 1-473: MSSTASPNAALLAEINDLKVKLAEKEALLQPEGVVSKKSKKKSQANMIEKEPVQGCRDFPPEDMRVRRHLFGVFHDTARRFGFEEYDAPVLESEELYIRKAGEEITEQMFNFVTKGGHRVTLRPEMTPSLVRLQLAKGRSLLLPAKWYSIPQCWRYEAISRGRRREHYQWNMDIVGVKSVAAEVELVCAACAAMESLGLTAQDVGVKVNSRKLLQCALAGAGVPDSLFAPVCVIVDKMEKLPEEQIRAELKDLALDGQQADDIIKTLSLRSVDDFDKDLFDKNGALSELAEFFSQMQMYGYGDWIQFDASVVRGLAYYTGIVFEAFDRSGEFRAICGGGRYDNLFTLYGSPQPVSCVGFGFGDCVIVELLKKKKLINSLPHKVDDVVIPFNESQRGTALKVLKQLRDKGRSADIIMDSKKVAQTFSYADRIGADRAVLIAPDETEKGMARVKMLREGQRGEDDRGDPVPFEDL
UniProt P9WFT3, whole entry: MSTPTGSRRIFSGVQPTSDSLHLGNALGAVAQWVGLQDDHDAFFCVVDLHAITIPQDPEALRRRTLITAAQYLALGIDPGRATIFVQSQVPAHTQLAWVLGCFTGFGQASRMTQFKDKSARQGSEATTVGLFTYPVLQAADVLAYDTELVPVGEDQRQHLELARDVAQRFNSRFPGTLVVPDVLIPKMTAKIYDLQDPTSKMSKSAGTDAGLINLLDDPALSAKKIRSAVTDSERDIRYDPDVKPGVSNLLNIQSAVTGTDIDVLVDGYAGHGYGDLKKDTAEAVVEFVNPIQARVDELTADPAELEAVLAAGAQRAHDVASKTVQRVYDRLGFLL

From ChEMBL document CHEMBL3988442, “University of Dundee, Small-Polar-MMV Screening Library” (2021).

Pks13 thioesterase: 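Enzyme assay of the thioesterase domain of polyketide synthase 13; the read-out is not stated. Target: Polyketide synthase Pks13, Mycobacterium tuberculosis (UniProt I6X8D2). Compounds at 30 µM. The record gives no direction; the compounds picked for IC50 retests had high values, so higher reads as stronger inhibition. Size under these conditions: about 67,000 compounds, about 300 of them at 50% or above in at least one test.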
PfKRS1: 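Lysine-tRNA ligase, Plasmodium falciparum 3D7 (UniProt Q8IDJ8). Enzyme assay of the cytosolic lysyl-tRNA synthetase in 384-well plates, read by luminescence. Tested at 30 µM. Direction is inferred from only a few compounds that gave an IC50; most scored high, so higher reads as stronger inhibition. About 69,000 compounds were tested under these conditions; 0.071% (about 49) showed 50% or more at least once.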
LiHisRS: 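Histidine-tRNA ligase, Leishmania infantum (UniProt A4I591). Enzyme assay of histidyl-tRNA synthetase; the read-out is not stated. Concentration: 30 µM. Higher reads as stronger inhibition (inferred: compounds with an IC50 in retests scored well above the rest). The assay is labelled LdHisRS but filed under L. infantum. About 69,000 compounds were tested under these conditions; 0.6% (about 410) showed 50% or more at least once.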
MtTrpRS: 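Enzyme assay of tryptophanyl-tRNA synthetase; the read-out is not stated. Target: Tryptophan-tRNA ligase, Mycobacterium tuberculosis (UniProt P9WFT3). Tested at 10 µM. Direction is not recorded; retested compounds ran higher, which suggests that high means inhibition. Of about 65,000 compounds tested this way, about 64 (0.098%) reached 50% or more in at least one test.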

The filed quantity is “Percent Effect” (%).
How 0% and 100% were set is not recorded. Most values in the screen are low, and negative values occur.
This is an unselected part of the compounds tested.

CC(O)CN1CCC(CNCc2ccccc2Br)CC1 (centres undefined) read Pks13 thioesterase: -2.36%; PfKRS1: 0.5158%; LiHisRS: 19.15%; MtTrpRS: -2.004%.
Cc1cnn(CC2CCCCN2C(=O)c2ccc3[nH]nnc3c2)c1 (centres undefined) read Pks13 thioesterase: -46.86%; PfKRS1: 6.832%; LiHisRS: 2.667%; MtTrpRS: -1.016%.
Clc1ccccc1OCCc1cc(C2CCNC2)n[nH]1 (centres undefined) read Pks13 thioesterase: 8.222%; PfKRS1: -0.4685%; LiHisRS: 15.79%; MtTrpRS: -2.145%.
O=C(NCC(F)(F)F)c1nnn(-c2ccccc2)c1C(F)(F)F read Pks13 thioesterase: -15.33%; PfKRS1: 0.6414%; LiHisRS: 8.333%; MtTrpRS: 1.027%.
Cc1csc(N2CCCN(C(=O)C(C)n3cncn3)CC2)n1 (centres undefined) read Pks13 thioesterase: 1.308%; PfKRS1: 0.5932%; LiHisRS: 21.82%; MtTrpRS: -8.796%.
Cc1cn(-c2ccccc2)nc1NS(=O)(=O)c1cc(C(=O)O)ccc1Cl read Pks13 thioesterase: -8.893%; PfKRS1: -2.13%; LiHisRS: -6.024%; MtTrpRS: 1.36%.
Cc1ccccc1C(=O)NCC(=O)NCc1ccccn1 read Pks13 thioesterase: -6.258%; PfKRS1: 2.121%; LiHisRS: 11.67%; MtTrpRS: 4.348%.
CCOc1nnc(CN(C)C2CCCN(c3cccnn3)C2)s1 (centres undefined) read Pks13 thioesterase: -52.16%; PfKRS1: 1.172%; LiHisRS: 45.71%; MtTrpRS: -0.1059%.
c1ccc(-c2noc(C3CCN(CCn4cccn4)CC3)n2)cc1 read Pks13 thioesterase: 13.45%; PfKRS1: -2.292%; LiHisRS: 25.64%; MtTrpRS: 10.89%.
CCn1c(SCC(=O)O)nnc1C(C)NC(=O)c1ccc(Cl)cc1 (centres undefined) read Pks13 thioesterase: -4.033%; PfKRS1: 0.2654%; LiHisRS: 3.448%; MtTrpRS: 1.166%.
CS(=O)(=O)c1cn[nH]c1C1CCCCN1C(=O)Cc1cccnc1 (centres undefined) read Pks13 thioesterase: -18.86%; PfKRS1: 1.098%; LiHisRS: -11.58%; MtTrpRS: 5.507%.
Cc1cc(C)c2nc(CN3CC[C@@H](O)C3)cc(O)c2c1 read Pks13 thioesterase: -14.98%; PfKRS1: 1.896%; LiHisRS: 30.77%; MtTrpRS: -5.96%.
O=S(=O)(NCc1ccc(S(=O)(=O)N2CCCC2)s1)c1cc(Cl)ccc1Cl read Pks13 thioesterase: -16.96%; PfKRS1: 2.182%; LiHisRS: 7.895%; MtTrpRS: 0.2101%.
Cc1nc(CN2CCCCC2CCc2cccs2)co1 (centres undefined) read Pks13 thioesterase: -31.95%; PfKRS1: -1.025%; LiHisRS: 8.392%; MtTrpRS: -9.084%.
Cc1csc(NCC(=O)c2c[nH]c3ccccc23)n1 read Pks13 thioesterase: 11.22%; PfKRS1: 3.837%; LiHisRS: 25%; MtTrpRS: -2.144%.
CC(C)NC(=O)CCCn1cnc2ccccc2c1=O read Pks13 thioesterase: -2.329%; PfKRS1: -3.295%; LiHisRS: -1.099%; MtTrpRS: -0.4531%.
CS(=O)(=O)NC[C@]12COC[C@H]1CN(C(=O)c1cnccn1)C2 read Pks13 thioesterase: -1.882%; PfKRS1: -3.293%; LiHisRS: -2.655%; MtTrpRS: 3.745%.
CC(C)(CNC(=O)C1(c2ccccc2)CCOCC1)C(=O)O read Pks13 thioesterase: -18.37%; PfKRS1: -1.462%; LiHisRS: 14.29%; MtTrpRS: -2.351%.
CCCOC(=O)N1CCCn2nc(C(=O)Nc3ccccc3)cc2C1 read Pks13 thioesterase: -5.864%; PfKRS1: 3.554%; LiHisRS: 9.89%; MtTrpRS: -4.311%.
CCN1C[C@H]2[C@@H](C1)N(S(=O)(=O)c1cccnc1)CC[C@H]2OC read Pks13 thioesterase: 3.893%; PfKRS1: -13.69%; LiHisRS: -6.569%; MtTrpRS: -0.5286%.
CC(C)n1ccc(=O)nc1SC1CCN(c2ccccc2F)C1=O (centres undefined) read Pks13 thioesterase: -3.281%; PfKRS1: 4.35%; LiHisRS: 5.479%; MtTrpRS: -3.725%.

The first 2 entries again:

With CC(O)CN1CCC(CNCc2ccccc2Br)CC1 (centres undefined) the screen gave Pks13 thioesterase: -2.36%; PfKRS1: 0.5158%; LiHisRS: 19.15%; MtTrpRS: -2.004%.
With Cc1cnn(CC2CCCCN2C(=O)c2ccc3[nH]nnc3c2)c1 (centres undefined) the screen gave Pks13 thioesterase: -46.86%; PfKRS1: 6.832%; LiHisRS: 2.667%; MtTrpRS: -1.016%.